Data taken from paper PMC7077553.
These are yes or no findings as the source states them, for the method shown. In cells and extracts the contact can be indirect. Some binding calls cover weakened binding; strength is not graded here.

Key:
[1] = molecular target: T1, Cyclin G2 (CCNG2) in HK-2 cells (not stated (in human HK-2 cells)) (UniProt Q16589); assay: co-IP; coimmunoprecipitation in HK-2 cells; which protein was precipitated is not told
T1 sequence: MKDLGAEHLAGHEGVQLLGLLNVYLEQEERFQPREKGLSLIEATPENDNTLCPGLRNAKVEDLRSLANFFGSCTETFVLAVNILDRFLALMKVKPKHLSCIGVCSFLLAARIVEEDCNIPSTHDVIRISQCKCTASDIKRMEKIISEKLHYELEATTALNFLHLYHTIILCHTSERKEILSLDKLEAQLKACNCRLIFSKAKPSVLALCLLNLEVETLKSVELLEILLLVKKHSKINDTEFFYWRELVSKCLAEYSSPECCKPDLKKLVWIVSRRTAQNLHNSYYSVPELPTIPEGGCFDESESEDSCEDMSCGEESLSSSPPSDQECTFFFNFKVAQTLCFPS

[2] = molecular target: T1, Cyclin G2 (CCNG2) in HK-2 cells (not stated (in human HK-2 cells)); assay: proximity ligation; Duolink in situ PLA in fixed, permeabilised HK-2 cells with primary antibodies against Dpr1, cyclin G2 or CK1; Dpr1-CK1 also in the context of cyclin G2 overexpression

- binding [1]: binds
- binding [2]: binds
B1: Dapper1 (Dpr1/DACT1) in HK-2 cells (protein, UniProt Q9NYF0 1-836)
chain: MKPSPAGTAKELEPPAPARGEQRTAEPEGRWREKGEADTERQRTRERQEATLAGLAELEYLRQRQELLVRGALRGAGGAGAAAPRAGELLGEAAQRSRLEEKFLEENILLLRKQLNCLRRRDAGLLNQLQELDKQISDLRLDVEKTSEEHLETDSRPSSGFYELSDGASGSLSNSSNSVFSECLSSCHSSTCFCSPLEATLSLSDGCPKSADLIGLLEYKEGHCEDQASGAVCRSLSTPQFNSLDVIADVNPKYQCDLVSKNGNDVYRYPSPLHAVAVQSPMFLLCLTGNPLREEDRLGNHASDICGGSELDAVKTDSSLPSPSSLWSASHPSSSKKMDGYILSLVQKKTHPVRTNKPRTSVNADPTKGLLRNGSVCVRAPGGVSQGNSVNLKNSKQACLPSGGIPSLNNGTFSPPKQWSKESKAEQAESKRVPLPEGCPSGAASDLQSKHLPKTAKPASQEHARCSAIGTGESPKESAQLSGASPKESPSRGPAPPQENKVVQPLKKMSQKNSLQGVPPATPPLLSTAFPVEERPALDFKSEGSSQSLEEAHLVKAQFIPGQQPSVRLHRGHRNMGVVKNSSLKHRGPALQGLENGLPTVREKTRAGSKKCRFPDDLDTNKKLKKASSKGRKSGGGPEAGVPGRPAGGGHRAGSRAHGHGREAVVAKPKHKRTDYRRWKSSAEISYEEALRRARRGRRENVGLYPAPVPLPYASPYAYVASDSEYSAECESLFHSTVVDTSEDEQSNYTTNCFGDSESSVSEGEFVGESTTTSDSEESGGLIWSQFVQTLPIQTVTAPDLHNHPAKTFVKIKASHNLKKKILRFRSGSLKLMTTV
